Measured values published in patent publication US20090238808A1, “Process for the identification of novel enzyme interacting compounds” (priority 2005, published 2009).
At least one structure is not confirmed: it was looked up by name or label, or the drawing left a doubt.

Tested on: proteins captured on kinobeads from K562 cell lysate
Details: 1 μM drug in K562 lysate

Cc1nc(Nc2ncc(C(=O)Nc3c(C)cccc3Cl)s2)cc(N2CCN(CCO)CC2)n1 [dasatinib]
number of proteins with more than 50% binding reduction on kinobeads: 39
